According to article PMC9144812:
No constants are given. Whether binding was seen depends on the method and setting. In cells and extracts the contact can be indirect. Binding can be weak; no strength is given. Tags and fused reporters may be left off the sequences shown.

Target: MLD1F-CLUC (rice (Oryza sativa japonica cv. Aichiasahi))
Test: split reporter; firefly luciferase complementation imaging (LCI) in N. benthamiana leaves, LUC activity imaged 48 h post infiltration

binding: binds
B1: NLUC-SERK1 (receptor, UniProt Q6Z4U4 26-624)
chain: NMEGDALHSLRTNLVDPNNVLQSWDPTLVNPCTWFHVTCNNDNSVIRVDLGNAALSGTLVPQLGQLKNLQYLELYSNNISGTIPSELGNLTNLVSLDLYLNNFTGPIPDSLGNLLKLRFLRLNNNSLSGSIPKSLTAITALQVLDLSNNNLSGEVPSTGSFSLFTPISFANNPSLCGPGTTKPCPGAPPFSPPPPYNPPTPVQSPGSSSSTGAIAGGVAAGAALLFAIPAIGFAWYRRRKPQEHFFDVPAEEDPEVHLGQLKRFSLRELQVATDTFSNKNILGRGGFGKVYKGRLADGSLVAVKRLKEERTPGGELQFQTEVEMISMAVHRNLLRLRGFCMTPTERLLVYPYMANGSVASRLRERPPSEPPLDWRTRRRIALGSARGLSYLHDHCDPKIIHRDVKAANILLDEDFEAVVGDFGLAKLMDYKDTHVTTAVRGTIGHIAPEYLSTGKSSEKTDVFGYGIMLLELITGQRAFDLARLANDDDVMLLDWVKGLLKEKRLEMLVDPDLQSNYIDVEVESLIQVALLCTQGSPTERPKMAEVVRMLEGDGLAERWEEWQKIEVVRQEVELGPHRNSEWIVDSTDNLHAVELSGPR
